Measurements taken from paper PMC6604343.
These are yes or no findings as the source states them, for the method shown. Binding seen in cells or lysates may run through a third protein. Some results given as binding are weak or reduced against the parent protein; the word gives no strength.

Amino acid sequences for entries named in this document (tags omitted).
UniProt P14598: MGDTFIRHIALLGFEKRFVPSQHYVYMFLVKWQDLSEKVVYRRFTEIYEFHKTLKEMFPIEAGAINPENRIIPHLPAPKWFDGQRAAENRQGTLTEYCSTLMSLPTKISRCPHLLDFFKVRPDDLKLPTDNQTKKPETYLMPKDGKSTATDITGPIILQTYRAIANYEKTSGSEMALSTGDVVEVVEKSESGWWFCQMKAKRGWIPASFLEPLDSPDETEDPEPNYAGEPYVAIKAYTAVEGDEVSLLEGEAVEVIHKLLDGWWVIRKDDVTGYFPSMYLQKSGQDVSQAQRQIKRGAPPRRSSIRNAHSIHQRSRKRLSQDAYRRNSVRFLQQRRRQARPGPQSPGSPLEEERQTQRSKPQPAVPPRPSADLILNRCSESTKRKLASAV

Legend:
[1] = target: T1, NOX2 (human (endogenous in human umbilical vein endothelial cells)) (UniProt P04839); assay: co-IP; whole cell lysate of endothelial cells exposed to oscillatory shear stress (OSS) for different times; which of the two was precipitated is not stated; blot quantified for p47
T1 sequence: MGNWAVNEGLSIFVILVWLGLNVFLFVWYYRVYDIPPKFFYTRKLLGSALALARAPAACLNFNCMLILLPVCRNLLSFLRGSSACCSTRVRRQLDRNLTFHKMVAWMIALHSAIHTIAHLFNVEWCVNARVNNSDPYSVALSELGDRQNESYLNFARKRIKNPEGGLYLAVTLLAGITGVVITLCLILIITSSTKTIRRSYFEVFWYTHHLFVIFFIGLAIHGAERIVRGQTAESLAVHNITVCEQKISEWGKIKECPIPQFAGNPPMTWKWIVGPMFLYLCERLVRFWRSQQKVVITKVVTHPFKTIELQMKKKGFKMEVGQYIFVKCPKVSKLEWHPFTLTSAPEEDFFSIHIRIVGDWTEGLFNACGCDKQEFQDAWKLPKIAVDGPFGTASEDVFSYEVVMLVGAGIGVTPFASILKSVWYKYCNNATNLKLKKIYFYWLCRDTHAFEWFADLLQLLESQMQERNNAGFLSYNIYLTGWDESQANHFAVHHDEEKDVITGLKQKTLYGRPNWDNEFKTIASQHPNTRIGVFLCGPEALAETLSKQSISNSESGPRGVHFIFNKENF

[2] = target: T2, caveolin-1 (human (endogenous in human umbilical vein endothelial cells)), Q03135; assay: co-IP; lysate of endothelial cells after flow treatment (OSS; also with siTLR4) incubated with caveolin-1 (antibody) overnight at 4°C, protein A+G 4 h, washed five times with RIPA; blot for total eNOS; conditions: remark: other sources report otherwise
T2 chain: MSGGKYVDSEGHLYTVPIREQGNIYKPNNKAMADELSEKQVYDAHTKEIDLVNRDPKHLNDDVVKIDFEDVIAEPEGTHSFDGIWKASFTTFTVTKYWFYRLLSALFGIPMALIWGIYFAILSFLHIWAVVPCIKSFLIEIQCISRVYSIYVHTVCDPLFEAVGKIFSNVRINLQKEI

Molecule	binding [1]	binding [2]
p47 (from UniProt P14598 1-390)	binds	
endothelial nitric oxide synthase, P29474 1-1203 (enzyme) MGNLKSVAQEPGPPCGLGLGLGLGLCGKQGPATPAPEPSRAPASLLPPAPEHSPPSSPLTQPPEGPKFPRVKNWEVGSITYDTLSAQAQQDGPCTPRRCLGSLVFPRKLQGRPSPGPPAPEQLLSQARDFINQYYSSIKRSGSQAHEQRLQEVEAEVAATGTYQLRESELVFGAKQAWRNAPRCVGRIQWGKLQVFDARDCRSAQEMFTYICNHIKYATNRGNLRSAITVFPQRCPGRGDFRIWNSQLVRYAGYRQQDGSVRGDPANVEITELCIQHGWTPGNGRFDVLPLLLQAPDDPPELFLLPPELVLEVPLEHPTLEWFAALGLRWYALPAVSNMLLEIGGLEFPAAPFSGWYMSTEIGTRNLCDPHRYNILEDVAVCMDLDTRTTSSLWKDKAAVEINVAVLHSYQLAKVTIVDHHAATASFMKHLENEQKARGGCPADWAWIVPPISGSLTPVFHQEMVNYFLSPAFRYQPDPWKGSAAKGTGITRKKTFKEVANAVKISASLMGTVMAKRVKATILYGSETGRAQSYAQQLGRLFRKAFDPRVLCMDEYDVVSLEHETLVLVVTSTFGNGDPPENGESFAAALMEMSGPYNSSPRPEQHKSYKIRFNSISCSDPLVSSWRRKRKESSNTDSAGALGTLRFCVFGLGSRAYPHFCAFARAVDTRLEELGGERLLQLGQGDELCGQEEAFRGWAQAAFQAACETFCVGEDAKAAARDIFSPKRSWKRQRYRLSAQAEGLQLLPGLIHVHRRKMFQATIRSVENLQSSKSTRATILVRLDTGGQEGLQYQPGDHIGVCPPNRPGLVEALLSRVEDPPAPTEPVAVEQLEKGSPGGPPPGWVRDPRLPPCTLRQALTFFLDITSPPSPQLLRLLSTLAEEPREQQELEALSQDPRRYEEWKWFRCPTLLEVLEQFPSVALPAPLLLTQLPLLQPRYYSVSSAPSTHPGEIHLTVAVLAYRTQDGLGPLHYGVCSTWLSQLKPGDPVPCFIRGAPSFRLPPDPSLPCILVGPGTGIAPFRGFWQERLHDIESKGLQPTPMTLVFGCRCSQLDHLYRDEVQNAQQRGVFGRVLTAFSREPDNPKTYVQDILRTELAAEVHRVLCLERGHMFVCGDVTMATNVLQTVQRILATEGDMELDEAGDVIGVLRDQQRYHEDIFGLTLRTQEVTSRIRTQSFSLQERQLRGAVPWAFDPPGSDTNSP		binds
